# Laboratory results published in PubChem BioAssay AID493014 (National Center for Advancing Translational Sciences (NCATS), 2011).
# Some of the results follow. Shown are side measurements of this screen, not its main read-out; they come without a call. Most of these compounds were active or inconclusive in the main read-out, so they are no random draw. Potencies come from curve fits of mixed quality, noted in brackets.
# Experiment: qHTS Assay to Find Inhibitors of Chronic Active B-Cell Receptor Signaling
# Conditions: ABC-DLBCL IkBa-CBG/CBR reporter, luminescence ratio (green luciferase fused to IkBa over red control in TMD8 lymphoma cells), 4 h
# Method in brief: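 Doxycycline induced both beetle luciferases in TMD8 lymphoma cells; IKK-driven degradation limits the IkappaBalpha-fused green signal, while red luminescence normalises for cell number and nonspecific effects. Compounds tested up to 46 uM, 4 hrs.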
# [1] = measured here: CBR red luminescence, cell number
# [2] = measured here: IkBa-CBG green luminescence
Compound,AC50 [1],AC50 [2]
CCOC(=O)c1nnn(-c2ccc([N+](=O)[O-])cc2)c1C,"12.6 µM [rising, partial curve, poor fit]",
CCC(C(=O)N1CCN(c2ccccn2)CC1)n1nc(C)n2c(cc3occc32)c1=O (stereo not drawn),"35.5 µM [falling, single point]",
CN=c1scc(C)n1/N=C/c1ccc(O)cc1,"18.4 µM [falling, single point]",
CN(Cc1ccccc1)S(=O)(=O)c1ccc(Cl)c(C(=O)NCc2ccc3c(c2)OCO3)c1,"16.4 µM [rising, partial curve]",
Cc1ccc(C)c(NC(=S)Nc2cccc3cnccc23)c1,"0.891 µM [rising, full curve, poor fit]",
O=c1c(Cc2c(F)cccc2Cl)c(O)ccn1C1CC1,"0.708 µM [rising, full curve, poor fit]",
Cc1[nH]c2ccccc2c1/C=N/NC(=O)c1ccccc1,"12.6 µM [falling, partial curve]",
O=C(CN1C(=O)c2ccccc2C1=O)Nc1ccc(-c2nc3ccccc3o2)cc1,"18.4 µM [falling, single point]",
COc1ccccc1NC(=O)Nc1nc2ccc(S(N)(=O)=O)cc2s1,"1.26 µM [falling, full curve]",
O=C(N/N=C/c1cccc(O)c1)c1ccc2c(c1)OCCO2,"11.2 µM [falling, partial curve]",
Cc1cccc(-n2c(SCC(N)=O)nc3c(c2=O)C2(CCCC2)Cc2ccccc2-3)c1,"18.4 µM [falling, partial curve]","20.6 µM [rising, partial curve, poor fit]"
Clc1c(CSc2nc3ccccc3o2)nc2sccn12,"1.03 µM [rising, full curve, poor fit]","16.4 µM [falling, single point]"
O=[N+]([O-])c1ccc2nn(Cc3ccccc3)cc2c1,"6.31 µM [falling, partial curve]",
CS(=O)(=O)N1CCC(C(=O)NCc2ccc(F)cc2Cl)CC1,"6.51 µM [falling, single point]",
Cc1ccccc1NC(=O)N(C(C)C)C(C)C,"0.411 µM [falling, partial curve, poor fit]",
CCc1ccc(Nc2n[n+](-c3ccccc3)c(-c3c(Cl)cccc3Cl)s2)cc1,"22.4 µM [falling, single point]",
Cc1ccc(S(=O)(=O)N(Cc2ccccc2)Cc2ccco2)cc1,"29.1 µM [rising, single point]",
O=C(NC12CC3CC(CC(C3)C1)C2)c1ccc(-c2cccc(Cl)c2)o1,"29.1 µM [rising, single point]",
CN(C)c1ccc(-n2cccc2/C=C2/SC(=Nc3ccc(F)cc3)NC2=O)cc1,"0.355 µM [falling, full curve, poor fit]",
O=C(O)Cc1sc(N/N=C\c2ccccc2)nc1-c1ccccc1,"8.2 µM [falling, partial curve, poor fit]",
Cc1[nH]nc2c1C(c1ccsc1)C(C#N)=C(N)O2 (stereo not drawn),"18.4 µM [falling, single point]",

# Four of these compounds, set out differently.
Compound	AC50 [1]	AC50 [2]
Cc1ccc(C)c(NC(=S)Nc2cccc3cnccc23)c1	0.891 µM [rising, full curve, poor fit]	
O=c1c(Cc2c(F)cccc2Cl)c(O)ccn1C1CC1	0.708 µM [rising, full curve, poor fit]	
CCc1ccc(Nc2n[n+](-c3ccccc3)c(-c3c(Cl)cccc3Cl)s2)cc1	22.4 µM [falling, single point]	
O=C(NC12CC3CC(CC(C3)C1)C2)c1ccc(-c2cccc(Cl)c2)o1	29.1 µM [rising, single point]	

# (continued)

Compound,AC50 [1],AC50 [2]
COc1ccc(CCNS(=O)(=O)c2ccc3c(c2)CCCC3)cc1OC,"29.1 µM [falling, single point]",
O=C(c1ccncc1)N1N=C(c2ccc(Br)cc2)CC1c1ccccc1O (stereo not drawn),"8.91 µM [falling, partial curve]",
Cc1ccc(Cl)cc1NC(=O)COC(=O)CC1CC2CCC1C2 (stereo not drawn),"20.6 µM [falling, single point]",
CC(=O)c1ccc(NC(=O)CN2C(=O)NC(C)(c3ccc4c(c3)OCCO4)C2=O)cc1 (stereo not drawn),"13 µM [rising, partial curve]","23.1 µM [falling, single point]"
CCSc1ncccc1-c1nc2ccccc2[nH]1,"0.651 µM [falling, full curve]",
O=C(NCCCN1CCOCC1)C1CCN(S(=O)(=O)c2ccccc2)CC1,"29.1 µM [rising, partial curve, poor fit]",
O=C(NCC1CCCO1)c1c(O)c2c([nH]c1=O)CCCC2 (stereo not drawn),"20 µM [rising, single point]",
Cc1ccc2nc(N/N=C/c3ccccc3F)nc(-c3ccccc3)c2c1,"4.61 µM [falling, full curve]",
CC(=O)Nc1ccc(S(=O)(=O)N(C)CC(=O)OC(C)C(=O)N(C)C2CCCCC2)cc1 (stereo not drawn),"3.16 µM [rising, full curve]",
CC(C)N(C(=O)Cn1cnc2cc([N+](=O)[O-])ccc2c1=O)C(C)C,"5.01 µM [falling, full curve, poor fit]",
N/C(=N\OC(=O)c1cccs1)c1cccc([N+](=O)[O-])c1,"7.94 µM [rising, partial curve, poor fit]",
COc1ccc(NC(=O)C2C(c3ccccc3)C2(Cl)Cl)c(OC)c1 (stereo not drawn),"35.5 µM [rising, single point]",
CC(=O)Nc1cccc(Nc2nc(-c3ccccc3)nc3ccccc23)c1,"35.5 µM [falling, single point]",
COc1cc(OC)c(NC(=O)C2CCCN2C(=O)OCc2ccccc2)cc1Cl (stereo not drawn),"2.51 µM [rising, partial curve, poor fit]",
O=[N+]([O-])c1ccc(N2CCN(CC(O)COc3ccccc3)CC2)cc1 (stereo not drawn),"11.2 µM [rising, partial curve]",
CCOCc1c(C(=O)Nc2ccc3nc(N4CCOCC4)sc3c2)oc2ccccc12,"23.1 µM [falling, single point]",
CN(C)S(=O)(=O)c1cccc(C(=O)OCC(=O)c2ccc3c(c2)NC(=O)CO3)c1,"35.5 µM [falling, single point]",
CCOc1ccc(C(=O)Nc2cccc(C(=O)O)c2C)cc1Cl,"16.4 µM [falling, partial curve]",
Cc1ccc(Cn2nnc3c(=O)[nH]c(C4CCN(S(=O)(=O)c5ccccc5)CC4)nc32)cc1,"35.5 µM [falling, single point]",
Cc1ccccc1Oc1cc(-n2ncc(Cl)c(Cl)c2=O)ncn1,"4.11 µM [falling, full curve]","3.66 µM [rising, full curve]"
Cn1c(=O)n(C)c2cc([N+](=O)[O-])c(N3CCN(C(=O)c4ccc(Cl)cc4)CC3)cc21,"0.562 µM [falling, partial curve, poor fit]",

Compound,AC50 [1],AC50 [2]
Cc1ccc(OCC(=O)O/N=C(\N)Cc2ccc(Cl)cc2)cc1,"12.6 µM [rising, partial curve, poor fit]",
COc1ccc(OC)c(C2=NOC(C(=O)Nc3cccnc3)C2)c1 (stereo not drawn),"16.4 µM [falling, partial curve, poor fit]",
CC(=O)Nc1ccc(-c2nc3ccccc3o2)cc1,"11.2 µM [falling, single point]",
CCc1ccccc1OCC(=O)Nc1cccc(S(=O)(=O)NC2=NCCC2)c1,"13 µM [falling, partial curve, poor fit]",
CCc1ccc(OCCNC(=O)c2ccc(S(=O)(=O)N(C)C)cc2)cc1,"2.91 µM [falling, single point]",
O=C(O)CC1(CC(=O)Nc2cc3ccccc3cn2)CCCCC1,"11.2 µM [falling, partial curve, poor fit]",
O=C(Oc1c(CN2CCOCC2)cc(Cl)c2cccnc12)c1ccc(F)cc1,"7.31 µM [rising, partial curve]","2.06 µM [falling, full curve, poor fit]"
COc1cccc(C(=O)Nc2c(C)nn(-c3ccccc3)c2C)c1,"5.01 µM [rising, partial curve]",
COc1ccccc1C(=O)NNC(=O)c1ccc(F)cc1,"8.2 µM [falling, partial curve, poor fit]",
CN1CCN(C(=O)c2ccc3c(c2)N(Cc2ccc(Cl)cc2)C(=O)c2ccccc2S3=O)CC1 (stereo not drawn),"0.231 µM [falling, full curve, poor fit]",
COc1ccccc1/C=C(/C#N)C(=O)O,"35.5 µM [rising, single point]",
CCN(CC)CCNC(=O)c1ccc(NC(=O)c2ccc(C(=O)c3ccccc3)cc2)cc1,"2.06 µM [rising, partial curve, poor fit]",
CCCCOc1ccccc1C1CC(=O)NC2=C1C(=O)CCC2 (stereo not drawn),"22.4 µM [rising, single point]","12.6 µM [falling, partial curve]"
O=C(Nc1ccc2c(c1)OCO2)c1ccc(NC2CC2)c([N+](=O)[O-])c1,"11.6 µM [falling, partial curve]",
O=C(CCl)Nc1c2c(nn1-c1ccccc1)CSC2,"22.4 µM [falling, single point]",
COc1ccc(S(=O)(=O)N2CCCC2)cc1C(=O)O,,"35.5 µM [rising, partial curve, poor fit]"
CCc1ccc(OCC(=O)Nc2ccc(S(=O)(=O)Nc3ccccn3)cc2)cc1,"22.4 µM [falling, single point]",
Cc1c(C(=O)OCC[N+]2(C)CCCCC2)oc2ccccc12,"12.6 µM [rising, partial curve]",
Nc1ncnc2c1ncn2C1OC(COP(=O)(O)O)C(O)C1O (stereo not drawn),,"11.2 µM [falling, partial curve]"
COC(=O)N1C(=O)[C@](c2ccc(Cl)cc2)(C(C)C)N1C(=O)OC,"3.16 µM [falling, partial curve]",
